# Inconclusive results, whose numbers are uncertain, are shown with a selection of clear calls. A potency beside an inconclusive call is a rough fit, not a confirmed value. Calls of active or inactive are those of the source. How the source made its calls: active means hit-call score of the fitted dose curve at least 0.9, where 1 is the maximum; inconclusive means response in the unintended direction; inactive means score below 0.9.
# Chains of the proteins cited; added tags and fusions are not shown. Lines headed by an entry give the natural chain unless they say otherwise; changes in a name come on top.
# UniProt P19490: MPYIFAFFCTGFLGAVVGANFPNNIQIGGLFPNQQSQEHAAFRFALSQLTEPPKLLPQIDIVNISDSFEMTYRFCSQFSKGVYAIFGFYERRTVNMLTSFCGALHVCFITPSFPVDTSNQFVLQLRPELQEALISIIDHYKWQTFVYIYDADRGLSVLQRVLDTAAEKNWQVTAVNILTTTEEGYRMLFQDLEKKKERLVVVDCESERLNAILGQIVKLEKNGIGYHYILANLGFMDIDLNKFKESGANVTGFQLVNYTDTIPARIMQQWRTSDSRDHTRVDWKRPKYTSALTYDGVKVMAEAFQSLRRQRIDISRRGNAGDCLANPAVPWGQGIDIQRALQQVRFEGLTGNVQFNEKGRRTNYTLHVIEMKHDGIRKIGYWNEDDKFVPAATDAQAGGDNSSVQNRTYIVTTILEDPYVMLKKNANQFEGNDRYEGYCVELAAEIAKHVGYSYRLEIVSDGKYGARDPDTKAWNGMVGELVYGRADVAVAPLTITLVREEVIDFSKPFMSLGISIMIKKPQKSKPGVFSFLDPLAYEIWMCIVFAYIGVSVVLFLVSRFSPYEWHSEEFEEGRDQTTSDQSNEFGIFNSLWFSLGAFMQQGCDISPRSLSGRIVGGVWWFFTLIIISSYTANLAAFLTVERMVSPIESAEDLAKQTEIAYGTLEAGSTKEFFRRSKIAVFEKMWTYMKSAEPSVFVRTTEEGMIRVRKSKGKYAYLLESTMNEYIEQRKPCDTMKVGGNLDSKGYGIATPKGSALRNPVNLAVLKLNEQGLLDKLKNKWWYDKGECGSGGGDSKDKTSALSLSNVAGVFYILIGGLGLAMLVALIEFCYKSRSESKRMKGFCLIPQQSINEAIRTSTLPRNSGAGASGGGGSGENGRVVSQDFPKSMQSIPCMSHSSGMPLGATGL
# Target: rat Glutamate, AMPA Site (AMPA), Gria1 (gene 50592) (UniProt P19490)
# Experiment: NVS_LGIC_rAMPA: NovaScreen (NVS) Ligand-Gated Ion Channel Assay for rat Glutamate, AMPA Site (AMPA) (AID 2283324)
# Protocol: NVS_LGIC_rAMPA is a biochemical, single-readout assay that uses extracted gene-proteins from Rat forebrain membranes in a tissue-based cell-free assay. Measurements were taken 1 hour after chemical dosing in a 48-well plate.NVS_LGIC_rAMPA is one of one assay component(s) measured or calculated from the NVS_LGIC_rAMPA assay. It is designed to make measurements of radioligand binding, a form of binding reporter, as detected with scintillation counting signals by Filter-based radiodetection technology.Data from the assay component NVS_LGIC_rAMPA was analyzed into 1 assay endpoint. This assay endpoint, NVS_LGIC_rAMPA, was analyzed in the positive analysis fitting direction relative to DMSO as the negative control and baseline of activity. Using a type of binding reporter, loss-of-signal activity can be used to understand changes in the binding as they relate to the gene Gria1. Furthermore, this assay endpoint can be referred to as a primary readout, because the performed assay has only produced 1 assay endpoint. To generalize the intended target to other relatable targets, this assay endpoint is annotated to the ion channel intended target family, where the subfamily is ligand-gated ion channel.
# Binding assays used specific radioligands (tritiated, iodinated) with non-radioactive competitive displacement ligands in agonist or antagonist protocols (as indicated) and various reference compounds and inhibitors to titrate specific binding to receptors and transporters. Most enzyme assays (CYPs, kinases, phosphatases, proteases, HDACs) used recombinant protein and specific substrates (fluorescence mostly, some colorimetric and radioactive) and inhibitors, followed by a biochemical separation of substrate and product. All assays for the biochemical HTS were initially run in duplicate at a single concentration (10 uM for CYP450 assays and 25 uM for all others). Assay-chemical combinations meeting a pre-defined threshold (e.g., 30% inhibition and other criteria defined below) were then run in singleton concentration-response format with maximum concentration of 20 uM for CYPs and 50 uM for all others. Each assay was run with positive and negative controls, and concurrent controls on every plate. The follow-up (secondary) screen tested active chemical-pairs in concentration series, as well as a few additional assays not tested in the primary screen, some selected negative inactives, and several cases re-run in the concentration series for confirmatory purposes.
SMILES,AC50,outcome
CSC(C)(C)C=NO,inconclusive: 25 µM,–
c1ccc2c(c1)-c1cccc3cccc-2c13,inconclusive: 0.0929 µM,–
O=[N+]([O-])c1cc(C(F)(F)F)c(Cl)c([N+](=O)[O-])c1Nc1ncc(C(F)(F)F)cc1Cl,inconclusive: 0.0849 µM,–
Clc1ccc(C(c2ccccc2Cl)C(Cl)(Cl)Cl)cc1 (stereo not drawn),–,inactive
CCC(=O)C(CC(C)N(C)C)(c1ccccc1)c1ccccc1 (stereo not drawn),inconclusive: 18.1 µM,–
O=C1C2CC=CCC2C(=O)N1SC(Cl)(Cl)Cl (stereo not drawn),inconclusive: 6.04 µM,–
CC(=O)[O][Hg][c]1ccccc1,active: 9.18 µM,–
C=C(C)C(=O)[O][Sn]([CH2]CCC)([CH2]CCC)[CH2]CCC,active: 25 µM,–
Oc1c(Cl)c(Cl)c(Cl)c(Cl)c1Cl,inconclusive: 12.8 µM,–
CCCCC(O)(Cn1cncn1)c1ccc(Cl)cc1Cl (stereo not drawn),inconclusive: 25 µM,–
CC(Cc1ccc(OCC(=O)O)cc1)NCC(O)c1csc(C(F)(F)F)n1 (stereo not drawn),inconclusive: 4.96 µM,–
CS(=O)(=O)c1cc(C(F)(F)F)ccc1C(=O)c1cnoc1C1CC1,inconclusive: 0.125 µM,–
O=C(Nc1ccccc1)Nc1cnns1,–,inactive

# Exported bar-delimited: part of the list above.
SMILES | AC50 | outcome
CSC(C)(C)C=NO | inconclusive: 25 µM | –
c1ccc2c(c1)-c1cccc3cccc-2c13 | inconclusive: 0.0929 µM | –

# From PubChem BioAssay (EPA / NIEHS)
